Some of these results come from one statement about several compounds together.
Columns and labels:
Sprague-Dawley rats [1] = assay: Acute toxicity test, oral administration; format: in vivo; conditions: oral, 100, 250 and 500 mg/kg, observed for 2 weeks, compared to the control group
Sprague-Dawley rats [2] = assay: Acute toxicity test, peritoneal administration; format: in vivo; conditions: peritoneal, 10, 50 and 100 mg/kg, observed for 2 weeks, compared to the control group

Row | Compound | visually observable symptoms (Sprague-Dawley rats [1]) | visually observable symptoms (Sprague-Dawley rats [2])
1 | CC1CC2=C(O1)c1ccc3c(c1C(=O)C2=O)CCCC3(C)C (single isomer, unassigned) [Example 2, 2,6,6-Trimethyl-1,2,6,7,8,9-hexahydro-phenanthro[1,2-b]furan-10,11-dione] | no visually observable symptoms with exception of weight loss | no visually observable symptoms with exception of weight loss
2 | CC1CC2=C(O1)c1ccc3c(c1C(=O)C2=O)CCCC3(C)C (single isomer, unassigned) [Example 3, 2,6,6-Trimethyl-1,2,6,7,8,9-hexahydro-phenanthro[1,2-b]furan-10,11-dione] | no visually observable symptoms with exception of weight loss | no visually observable symptoms with exception of weight loss
3 | CC1CC2=C(O1)c1ccc3c(c1C(=O)C2=O)CCCC3 (centres unmarked) [Example 1, 2-Methyl-1,2,6,7,8,9-hexahydro-phenanthro[1,2-b]furan-10,11-dione] | no visually observable symptoms with exception of weight loss | no visually observable symptoms with exception of weight loss
4 | CC1OC2=C(C(=O)C(=O)c3c2ccc2c3CCCC2(C)C)C1(C)C (centres unmarked) [Example 4, 1,1,2,6,6-Pentamethyl-1,2,6,7,8,9-hexahydro-phenanthro[1,2-b]furan-10,11-dione] | no visually observable symptoms with exception of weight loss | no visually observable symptoms with exception of weight loss
5 | CC1C2=C(OC1(C)C)c1ccc3c(c1C(=O)C2=O)CCCC3(C)C (centres unmarked) [Example 5, 1,2,2,6,6-Pentamethyl-1,2,6,7,8,9-hexahydro-phenanthro[1,2-b]furan-10,11-dione] | no visually observable symptoms with exception of weight loss | no visually observable symptoms with exception of weight loss
6 | CC1(C)CCC2=C(O1)c1ccc3c(c1C(=O)C2=O)CCCC3 [Example 6, 3,3-Dimethyl-2,3,7,8,9,10-hexahydro-1H-4-oxa-chrysene-11,12-dione] | no visually observable symptoms with exception of weight loss | no visually observable symptoms with exception of weight loss
7 | CC1CC2=C(O1)c1ccc3ccccc3c1C(=O)C2=O (centres unmarked) [Example 7, 2-Methyl-1,2-dihydro-phenanthro[1,2-b]furan-10,11-dione] | no visually observable symptoms with exception of weight loss | no visually observable symptoms with exception of weight loss
8 | CC1OC2=C(C(=O)C(=O)c3c2ccc2ccccc32)C1(C)C (centres unmarked) [Example 8, 1,1,2-Trimethyl-1,2-dihydro-phenanthro[1,2-b]furan-10,11-dione] | no visually observable symptoms with exception of weight loss | no visually observable symptoms with exception of weight loss
9 | Cc1cc2c(c3ccccc13)C(=O)C(=O)C1=C2OC(C)C1 (centres unmarked) [Example 9, 2,5-Dimethyl-1,2-dihydro-phenanthro[1,2-b]furan-10,11-dione] | no visually observable symptoms with exception of weight loss | no visually observable symptoms with exception of weight loss
10 | Cc1cc2c(c3ccccc13)C(=O)C(=O)C1=C2OC(C)C1(C)C (centres unmarked) [Example 10, 1,1,2,5-Tetramethyl-1,2-dihydro-phenanthro[1,2-b]furan-10,11-dione] | no visually observable symptoms with exception of weight loss | no visually observable symptoms with exception of weight loss
11 | CC1CC2=C(O1)c1ccc3ccc(C(C)(C)C)cc3c1C(=O)C2=O (centres unmarked) [Example 11, 8-tert-Butyl-2-methyl-1,2-dihydro-phenanthro[1,2-b]furan-10,11-dione] | no visually observable symptoms with exception of weight loss | no visually observable symptoms with exception of weight loss
12 | CC1OC2=C(C(=O)C(=O)c3c2ccc2ccc(C(C)(C)C)cc32)C1(C)C (centres unmarked) [Example 12, 8-tert-Butyl-1,1,2-trimethyl-1,2-dihydro-phenanthro[1,2-b]furan-10,11-dione] | no visually observable symptoms with exception of weight loss | no visually observable symptoms with exception of weight loss
13 | CC1CC2=C(O1)c1ccc3ccc(Cl)cc3c1C(=O)C2=O (centres unmarked) [Example 13, 8-Chloro-2-methyl-1,2-dihydro-phenanthro[1,2-b]furan-10,11-dione] | no visually observable symptoms with exception of weight loss | no visually observable symptoms with exception of weight loss
14 | Cc1ccc2ccc3c(c2c1)C(=O)C(=O)C1=C3OC(C)C1 (centres unmarked) [Example 14, 2,8-Dimethyl-1,2-dihydro-phenanthro[1,2-b]furan-10,11-dione] | no visually observable symptoms with exception of weight loss | no visually observable symptoms with exception of weight loss
15 | COc1ccc2ccc3c(c2c1)C(=O)C(=O)C1=C3OC(C)C1 (centres unmarked) [Example 15, 8-Methoxy-2-methyl-1,2-dihydro-phenanthro[1,2-b]furan-10,11-dione] | no visually observable symptoms with exception of weight loss | no visually observable symptoms with exception of weight loss
16 | Cc1cc2c(c3ccccc13)C(=O)C(=O)C1=C2OC(C)(C)CC1 [Example 16, 3,3,6-Trimethyl-2,3-dihydro-1H-4-oxa-chrysene-11,12-dione] | no visually observable symptoms with exception of weight loss | no visually observable symptoms with exception of weight loss
